# Test results as given in article PMC10564737, “Structure-based design of a phosphotyrosine-masked covalent ligand targeting the E3 ligase SOCS2” (Nature Communications, 2023).
# Amino acid sequences for entries named in this document (tags omitted). Residues count along the entry.
# UniProt O14508, 32-198: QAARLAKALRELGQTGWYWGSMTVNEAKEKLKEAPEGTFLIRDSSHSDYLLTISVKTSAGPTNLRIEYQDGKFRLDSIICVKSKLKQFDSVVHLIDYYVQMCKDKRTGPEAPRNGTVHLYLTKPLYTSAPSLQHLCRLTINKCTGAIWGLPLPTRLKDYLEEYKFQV
# Several values for one entry are separate records, joined by “and”; a condition that tells them apart may be missing. Equal entries are not always repeated. Further values from the same series stand in other lists.
# Target: T1, SBC2 (Homo sapiens, UniProt O14508)
# T1 construct: SOCS2 (amino acids 32–198); His6 (N, cleaved yes); made in house; host or cells: E. coli BL21(DE3)
# Test: Covalent fluorescence polarization (FP) probe displacement assay
# Type: binding
# From the text: With the specific covalent modification of Cys111 established, we decided to fully characterize MN551 as a covalent SOCS2 inhibitor. […] (Fig. 2g, h, Supplementary Fig. 9). Due to the covalent nature of the competing inhibitor, a time-dependent reduction in the fraction of protein-bound probe is observed. […] This value illustrates reasonable specificity for a covalent inhibitor, with nonetheless scope for future optimization. In addition to characterizing the kinetic covalency parameters, we have also assessed the stability of the MN551 by monitoring its reactivity (half-life >70 min) with reduced glutathione (GSH) (Supplementary Fig. 10)[35].
# To monitor the SBC2-ligand binding kinetics we designed a fluorescein-labeled small-molecule probe - compound 26. The fluorescence polarization (anisotropy) of a threefold serial dilution of 50 µM SBC2 in 10 nM of the probe in 100 mM HEPES pH 7.5, 50 mM NaCl, 0.5 mM TCEP, 2% DMSO was measured to determine the KL (Supplementary Fig. 9A) (BMG Labtech PHERAstar – firmware v1.33). Protein titration and the curves were fitted using GraphPad Prism 9, using one-site fitting models to determine the probe binding constant, KL. Samples were run in triplicate in 384 well plates, using a total volume per well of 16 μL. The bound fraction of the probe is measure using the equation:1 Fb=Af−A/Af−Ab Where,
# A time-dependent reduction in probe anisotropy were measured for a 2-fold serial dilution of […] compound MN551 in 10 nM probe +300 μM SBC2. To determine the initial reversible binding affinity, the initial bound fraction of the probe at time = 0, Fbo (the y-intercept in Fb v/s Time plot, Supplementary Fig. 9B) was plotted against MN551 concentration, and the obtained IC50 is then converted to Ki (Supplementary Fig. 9C)[17]. The slope from Fb versus time graph when divided by Fbo gives rate of covalency, kobs. A plot of kobs v/s MN551 concentration using Michaelis–Menten model of GraphPad Prism 9, provides the parameters kinact (maximum potential rate of inactivation) and KI (concentration of MN551 at which kobs = kinact/2) (Supplementary Fig. 9D, E).
# The observed first-order rate constant, kobs is related to KI and kinact by the equation:2 kobs=kinactI/KI+I
# At [I]«[KI] the above equation is converted to3 […]
# The slope from the plot of kobs against concentration of MN551 gives us the covalent efficiency parameter kinact/KI (Supp Fig. 9F)[30],[33].
# [1] = MN551 24.4141 nM; Cycle 6 (25 min)
# [2] = MN551 24.4141 nM; Cycle 7 (30 min)
# [3] = MN551 24.4141 nM; Cycle 8 (35 min)
# [4] = MN551 24.4141 nM; Cycle 9 (40 min)
# [5] = MN551 24.4141 nM; Cycle 10 (45 min)
# [6] = MN551 24.4141 nM; Cycle 12 (55 min); n=1
# [7] = MN551 24.4141 nM; Cycle 13 (60 min); n=1
# [8] = MN551 24.4141 nM; Cycle 14 (65 min); n=1
# [9] = MN551 24.4141 nM; Cycle 15 (70 min); n=1
# [10] = MN551 24.4141 nM; Cycle 16 (75 min); n=1
# [11] = MN551 24.694 nM, Cycle 8 (35 min)
# [12] = MN551 24.694 nM, Cycle 9 (40 min)
# [13] = MN551 24.694 nM, Cycle 10 (45 min)
# [14] = MN551 24.694 nM, Cycle 11 (50 min)
# [15] = MN551 24.694 nM, Cycle 15 (70 min), n=1
# [16] = MN551 24.694 nM, Cycle 16 (75 min), n=1
# [17] = MN551 24.694 nM, Cycle 17 (80 min), n=1
# [18] = MN551 24.694 nM; Cycle 6 (25 min)
# [19] = MN551 24.694 nM; Cycle 7 (30 min)
# [20] = MN551 24.694 nM; Cycle 8 (35 min)
# [21] = MN551 24.694 nM; Cycle 9 (40 min)
# [22] = MN551 24.694 nM; Cycle 10 (45 min)
# [23] = MN551 24.694 nM; Cycle 12 (55 min); n=1
# [24] = MN551 24.694 nM; Cycle 13 (60 min); n=1
# [25] = MN551 24.694 nM; Cycle 14 (65 min); n=1
# [26] = MN551 24.694 nM; Cycle 15 (70 min); n=1
# [27] = MN551 24.694 nM; Cycle 16 (75 min); n=1
compound,measurement,setting,value
O=C(CCl)Nc1cccc(CNC(=O)[C@H](Cc2ccc(OP(=O)(O)O)cc2)NC(=O)Cc2ccc(F)cc2)c1 [MN551],Anisotropy,"MN551 24.4141 nM, Cycle 16 (75 min), n=1",277.4 and 279.9 and 276.2
same,Anisotropy,"MN551 24.4141 nM, Cycle 17 (80 min), n=1",277.4 and 280.3 and 275.1
same,"Fb, fraction bound",MN551 24.4141 nM; Cycle 3 (10 min),1.0193 and 1.044 and 1.0218
same,"Fb, fraction bound",MN551 24.4141 nM; Cycle 4 (15 min),1.024 and 1.018 and 1.009
same,"Fb, fraction bound",MN551 24.4141 nM; Cycle 5 (20 min),1.0167 and 1.074 and 1.0156
same,"Anisotropy data 485,520,520",[1],276.5 and 277 and 278.2
same,Fb,[1],0.9674 and 0.9519 and 0.96
same,"Fb, fraction bound",[1],1.011 and 1.053 and 1.016
same,"Anisotropy data 485,520,520",[2],277.4 and 276.1 and 277.7
same,Fb,[2],1.0218 and 0.9651 and 1.004
same,"Fb, fraction bound",[2],1.043 (2×) and 1.041
same,Anisotropy,[3],284.3 and 285.2 and 282.4
same,"Anisotropy data 485,520,520",[3],275.6 and 275.1 and 278.3
same,Fb,[3],0.9854 and 0.947 and 1.002 and 1.046 and 1.043 and 1.026
same,Anisotropy,[4],282.9 and 283.6 and 283.2
same,"Anisotropy data 485,520,520",[4],274.3 and 276.2 and 275
same,Fb,[4],0.997 and 0.9699 and 0.9765 and 1.019 and 1.044 and 1.045
same,Anisotropy,[5],281.8 and 282.7 and 281.7
same,"Anisotropy data 485,520,520",[5],269.3 and 272.6 and 275.3
same,Fb,[5],0.9636 and 0.9483 and 0.9913 and 1.019 and 1.05 and 1.033
same,Anisotropy,MN551 24.4141 nM; Cycle 11 (50 min); n=1,272.7 and 273.6 and 274.3
same,Anisotropy,MN551 24.4141 nM; Cycle 12 (55 min),280.5 and 278.5
same,Anisotropy,[6],272.9 and 273.9 and 271.7
same,Anisotropy based on Raw Data (485),[6],277.3 and 274.5
same,Anisotropy,[7],270.1 and 275.4 and 274.1
same,Anisotropy based on Raw Data (485),[7],277.8 and 278.4 and 276.1
same,Anisotropy,[8],273.7 and 273.1 and 272.6
same,Anisotropy based on Raw Data (485),[8],277.5 and 278.3 and 275
same,Anisotropy,[9],270.4 and 271.1 and 269.6
same,Anisotropy based on Raw Data (485),[9],276 and 277.2 and 274.7
same,Anisotropy,[10],266.7 and 270.7 and 269.7
same,Anisotropy based on Raw Data (485),[10],276.3 and 278.1 and 273.3
same,"Anisotropy data 485,520,520",MN551 24.4141 nM; Cycle 19 (90 min); n=1,275.5 and 278.4 and 275.6
same,"Anisotropy data 485,520,520",MN551 24.4141 nM; Cycle 20 (95 min); n=1,273.7 and 275.4 and 275.5
same,Fb,"MN551 24.694 nM, Cycle 7 (30 min)",0.935 and 0.9067 and 0.9648
same,Anisotropy based on Raw Data (485),[11],275.4 and 273.6 and 278.5
same,Fb,[11],0.924 and 0.9077 and 0.9353
same,Anisotropy based on Raw Data (485),[12],272.7 and 272.3 and 277
same,Fb,[12],0.9065 and 0.9195 and 0.9578
same,Anisotropy based on Raw Data (485),[13],272.9 and 272.7 and 276.9
same,Fb,[13],0.9231 and 0.9311 and 0.9417
same,Anisotropy based on Raw Data (485),[14],273.7 and 271 and 274.6
same,Fb,[14],0.9157 and 0.8942 and 0.9419
same,Anisotropy,"MN551 24.694 nM, Cycle 13 (60 min), n=1",280.3 and 275.9 and 276
same,Anisotropy,"MN551 24.694 nM, Cycle 14 (65 min), n=1",277 and 276 and 275.3
same,Anisotropy,[15],277.6 and 276.3 and 273.5
same,"Normalised anisotropy (0 nM MN551 = 1, free probe = 0)",[15],1.048 and 1.016 and 1.001
same,Anisotropy,[16],277.1 and 273 and 275.2
same,"Normalised anisotropy (0 nM MN551 = 1, free probe = 0)",[16],1.015 and 1.001 and 1.016
same,Anisotropy,[17],277.8 and 275.8 and 273.3
same,"Normalised anisotropy (0 nM MN551 = 1, free probe = 0)",[17],1.048 and 1.02 and 1.027
same,"Fb, fraction bound",MN551 24.694 nM; Cycle 3 (10 min),1.041 and 1.042 and 1.045
same,"Fb, fraction bound",MN551 24.694 nM; Cycle 4 (15 min),1.0566 and 1.028 and 1.059
same,"Fb, fraction bound",MN551 24.694 nM; Cycle 5 (20 min),1.038 and 1.036 and 1.067
same,"Anisotropy data 485,520,520",[18],273.6 and 273.1
same,Fb,[18],0.9876 and 0.9666 and 1.09
same,"Fb, fraction bound",[18],1.046 (2×) and 1.032
same,"Anisotropy data 485,520,520",[19],276 and 267.3 and 272.9
same,Fb,[19],0.9659 and 0.9746 and 1.087
same,"Fb, fraction bound",[19],1.025 and 1.014 and 1.031
same,Anisotropy,[20],281.7 and 282.2
same,"Anisotropy data 485,520,520",[20],275.6 and 267.5 and 271.6
same,Fb,[20],0.9665 and 0.9912 and 1.126 and 1.049 and 1.0226 and 1.064
same,Anisotropy,[21],280.6 and 280 and 279.4
same,"Anisotropy data 485,520,520",[21],273.5 and 267.3 and 272.4
same,Fb,[21],0.9516 and 0.998 and 1.103 and 1.047 and 1.002 and 1.032
same,Anisotropy,[22],282.7 and 279.9 and 278.3
same,"Anisotropy data 485,520,520",[22],271.7 and 265.8 and 269.2
same,Fb,[22],0.9778 and 0.997 and 1.132 and 1.058 and 1.011 and 1.0207
same,Anisotropy,MN551 24.694 nM; Cycle 11 (50 min); n=1,270.8 and 264.1 and 268.1
same,Anisotropy,[23],272.3 and 264.5 and 268.4
same,Anisotropy based on Raw Data (485),[23],274 and 268.1 and 274.6
same,Anisotropy,[24],269 and 266.5 and 266.9
same,Anisotropy based on Raw Data (485),[24],270.5 and 266.2 and 270.8
same,Anisotropy,[25],268.9 and 262.9 and 267.2
same,Anisotropy based on Raw Data (485),[25],272.4 and 266.4 and 271.6
same,Anisotropy,[26],268.1 and 260.7 and 266.2
same,Anisotropy based on Raw Data (485),[26],269.8 and 269 and 273.3
same,Anisotropy,[27],267.2 and 260.6 and 266.3
same,Anisotropy based on Raw Data (485),[27],269.6 and 266.3 and 271.3
